# Primary screen of a compound library

By UniProt entry, the sequences of proteins in these tests, tags left out. Residues count along the entry.
UniProt P9WNZ1, whole entry: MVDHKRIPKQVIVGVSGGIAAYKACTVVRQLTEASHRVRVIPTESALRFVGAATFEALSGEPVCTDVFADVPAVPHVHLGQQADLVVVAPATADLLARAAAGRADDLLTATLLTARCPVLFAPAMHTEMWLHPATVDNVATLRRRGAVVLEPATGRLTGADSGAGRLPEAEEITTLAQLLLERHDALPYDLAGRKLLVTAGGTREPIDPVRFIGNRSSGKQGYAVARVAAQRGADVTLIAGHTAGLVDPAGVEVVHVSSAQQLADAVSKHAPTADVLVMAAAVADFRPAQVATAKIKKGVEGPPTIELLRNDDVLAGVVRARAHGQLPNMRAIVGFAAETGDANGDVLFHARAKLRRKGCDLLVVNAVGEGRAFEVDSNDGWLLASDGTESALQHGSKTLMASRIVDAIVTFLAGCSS
UniProt P9WFT3, whole entry: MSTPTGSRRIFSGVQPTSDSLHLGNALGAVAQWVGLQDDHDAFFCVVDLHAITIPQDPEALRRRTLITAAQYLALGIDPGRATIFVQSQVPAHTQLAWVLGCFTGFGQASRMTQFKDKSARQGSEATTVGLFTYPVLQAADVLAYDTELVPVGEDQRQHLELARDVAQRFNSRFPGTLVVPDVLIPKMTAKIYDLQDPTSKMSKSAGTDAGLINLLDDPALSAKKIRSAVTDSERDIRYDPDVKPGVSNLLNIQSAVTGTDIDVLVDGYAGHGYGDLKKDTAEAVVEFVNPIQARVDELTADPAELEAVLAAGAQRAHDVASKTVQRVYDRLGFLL
UniProt A4I591, 1-473: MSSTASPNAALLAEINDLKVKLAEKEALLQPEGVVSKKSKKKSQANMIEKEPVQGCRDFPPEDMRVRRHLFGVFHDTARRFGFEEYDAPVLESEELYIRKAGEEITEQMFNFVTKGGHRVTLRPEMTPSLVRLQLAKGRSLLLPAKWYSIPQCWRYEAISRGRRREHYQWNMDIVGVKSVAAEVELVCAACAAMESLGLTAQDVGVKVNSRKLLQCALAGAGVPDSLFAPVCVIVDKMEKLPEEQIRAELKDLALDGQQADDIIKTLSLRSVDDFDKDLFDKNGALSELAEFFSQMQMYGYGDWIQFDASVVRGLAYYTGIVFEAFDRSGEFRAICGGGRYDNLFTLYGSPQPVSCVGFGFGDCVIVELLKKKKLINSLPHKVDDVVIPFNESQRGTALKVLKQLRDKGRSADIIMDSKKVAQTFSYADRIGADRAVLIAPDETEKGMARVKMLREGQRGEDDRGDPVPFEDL

The values are deposited in ChEMBL (CHEMBL3988442, “University of Dundee, Small-Polar-MMV Screening Library” (2021)).

CoaBC: 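Coenzyme A biosynthesis protein CoaBC, Mycobacterium tuberculosis (UniProt P9WNZ1). Enzyme assay of CoaBC with a phosphate dye (Biomol Green) read at 650 nm. Tested at 30 µM. Direction is inferred from only a few compounds that gave an IC50; most scored high, so higher reads as stronger inhibition. Most strong results did not repeat in a second test. About 67,000 compounds were tested under these conditions; 0.06% (about 40) showed 50% or more at least once.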
Toxoplasma: 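Assay of Toxoplasma gondii numbers, read through their beta-galactosidase reporter with a colour substrate. Tested at 10 µM. Higher reads as fewer parasites (inferred from which compounds were picked for retests). Of about 67,000 compounds tested this way, about 260 (0.38%) reached 50% or more in at least one test.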
Leishmania in macrophages: 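Cell assay of Leishmania donovani living inside macrophages; the read-out is not stated. Compounds at 30 µM. Higher reads as stronger inhibition (inferred: compounds with an IC50 in retests scored well above the rest). Of about 69,000 compounds tested this way, about 1,000 (1.5%) reached 50% or more in at least one test.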
MtTrpRS: 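Enzyme assay of tryptophanyl-tRNA synthetase; the read-out is not stated. Target: Tryptophan-tRNA ligase, Mycobacterium tuberculosis (UniProt P9WFT3). Concentration: 10 µM. Higher most likely means stronger inhibition; the record gives no direction and few retests gave an IC50. Of about 65,000 compounds tested this way, about 64 (0.098%) reached 50% or more in at least one test.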
LiHisRS: 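Enzyme assay of histidyl-tRNA synthetase; the read-out is not stated. Target: Histidine-tRNA ligase, Leishmania infantum (UniProt A4I591). Compounds at 30 µM. Direction is inferred from retests: higher values go with stronger inhibition. The assay is labelled LdHisRS but filed under L. infantum. About 69,000 compounds were tested under these conditions; 0.6% (about 410) showed 50% or more at least once.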

The filed quantity is “Percent Effect” (%).
The record does not define 0% and 100%; most values in the screen are far below 50% and negative numbers occur (in some assays of this library far below -100).
This is an unselected part of the compounds tested.
A dash means the value is not listed here; it may have been measured.

With Cc1nnc(N2CCOC(CN(C)C)C2)c(C#N)c1C (configuration not stated) the screen gave CoaBC: 7.731%; Toxoplasma: -3.687%; Leishmania in macrophages: 18.56%; MtTrpRS: -0.6905%; LiHisRS: 23.21%. With CCOCC(=O)N1CCOCC2(CCN(c3ncccn3)C2)C1.O=C(O)C(F)(F)F (configuration not stated) the screen gave Toxoplasma: 8.392%; Leishmania in macrophages: -3.02%. For CCCC1(CO)CCCN(Cc2ncccn2)C1 (configuration not stated) the result was Toxoplasma: 7.534%; Leishmania in macrophages: 11.83%; MtTrpRS: 6.605%; LiHisRS: 19.17%. CN(C)C(=O)CN1CCCCC1c1nc(N)ncc1-c1cccc(F)c1 (configuration not stated) read CoaBC: 18.65%; Toxoplasma: -2.607%; Leishmania in macrophages: -2.119%; MtTrpRS: -2.115%; LiHisRS: 13.87%. With O=C(c1cc(F)ccc1F)C1CCN(C(=O)c2ccccn2)CC1 the screen gave CoaBC: 6.667%; Toxoplasma: 3.367%; Leishmania in macrophages: 40.02%; MtTrpRS: -1.329%; LiHisRS: 13.33%. Result for COc1ccc(CNc2nnc(CC(C)(C)C)o2)cc1C#N was CoaBC: -3.813%; Leishmania in macrophages: 6.593%; MtTrpRS: -0.7807%; LiHisRS: 22.58%. Cc1ccc(N(C)Cc2nnnn2C2CC2)c(C)c1 gave CoaBC: -1.195%; Toxoplasma: 6.132%; Leishmania in macrophages: 1.991%; MtTrpRS: -6.59%; LiHisRS: 2.74%. Result for CC(O)CN1CCC(CN(C)Cc2ccc(C(N)=O)cc2)CC1 (configuration not stated) was Toxoplasma: 1.402%; Leishmania in macrophages: 23.49%; MtTrpRS: 0.5045%; LiHisRS: 26.76%.

COC1(CNS(=O)(=O)c2ccccc2Br)CCSC1 (configuration not stated) read CoaBC: 8.403%; Toxoplasma: -2.817%; Leishmania in macrophages: 22.78%; MtTrpRS: 2.573%; LiHisRS: 7.692%. Result for CC(C)c1nc(C(=O)N(C)c2ccc(Br)cn2)cs1 was CoaBC: 2.244%; Toxoplasma: 4.172%; Leishmania in macrophages: 20.31%; MtTrpRS: -4.85%; LiHisRS: 17.81%. With COc1ccccc1CCNC(=O)CNC1CCc2nc(C)nn2C1 (configuration not stated) the screen gave CoaBC: 6.601%; Toxoplasma: 10.98%; Leishmania in macrophages: -28.5%; MtTrpRS: -0.7452%; LiHisRS: -8.219%. Result for COc1c(C2CCCN2C(=O)c2cnn(C)c2C2CC2)c(C)nn1C (configuration not stated) was CoaBC: -1.711%; Toxoplasma: -0.6039%; Leishmania in macrophages: -29.04%; MtTrpRS: -2.428%; LiHisRS: 1.613%. Result for CSCCC(=O)N1CCCCC1CCn1cccn1 (configuration not stated) was CoaBC: -2.174%; Toxoplasma: 2.934%; Leishmania in macrophages: 26.23%; MtTrpRS: -6.262%; LiHisRS: 7.853%. Result for COc1cc(C(=O)N(Cc2ccco2)C2CC2)cc2c1OCCO2 was CoaBC: 3.644%; Toxoplasma: -0.9553%; Leishmania in macrophages: 3.756%; MtTrpRS: -1.801%; LiHisRS: 8.571%. Result for CC(O)CN1CC2(CCC1=O)CCN(Cc1cc(F)ccc1Cl)CC2 (configuration not stated) was CoaBC: 4.37%; Toxoplasma: 6.453%; Leishmania in macrophages: 8.216%; MtTrpRS: -4.77%; LiHisRS: 10.42%. COCCN1CCC(CN(C)c2ncnc3c2c(C)nn3C)C1 (configuration not stated) read CoaBC: -0.4969%; Toxoplasma: 0.4327%; Leishmania in macrophages: 39.21%; MtTrpRS: 0.3303%; LiHisRS: 9.524%.

CCN(CC)c1ccc(CNC(=O)N2CCC(C#N)CC2)cc1 gave CoaBC: 5.372%; Toxoplasma: 12.91%; Leishmania in macrophages: 17.06%; MtTrpRS: -2.1%; LiHisRS: 16.96%. With Cc1noc(C2CCCN(C(=O)c3cc(Cl)cn3C)C2)n1 (configuration not stated) the screen gave CoaBC: 0.2141%; Toxoplasma: -3.061%; Leishmania in macrophages: -8.863%; MtTrpRS: -6.197%; LiHisRS: 3.333%. CC/C=C(/C)C(=O)NCc1ccc(OC)nc1 read CoaBC: -11.69%; Toxoplasma: 0.4802%; Leishmania in macrophages: 21.94%; MtTrpRS: -3.511%; LiHisRS: 3.509%. CC(=O)NCCCSC1CCCN(c2ccccc2Cl)C1=O (configuration not stated) gave CoaBC: -1.341%; Toxoplasma: -4.942%; Leishmania in macrophages: 21.56%; MtTrpRS: 0.3974%; LiHisRS: 2.198%. For COCCCN1CCN(c2ncnc3nc(C)cc(C)c23)CC1 the result was CoaBC: -1.279%; Toxoplasma: 2.688%; Leishmania in macrophages: 30.05%; MtTrpRS: -2.992%; LiHisRS: 16.39%. For Nc1nnc(SCc2cc(=O)n3c4c(sc3n2)CCCC4)[nH]1 the result was CoaBC: 2.3%; Toxoplasma: 6.199%; Leishmania in macrophages: 8.505%; MtTrpRS: -3.421%; LiHisRS: 25%. COc1cc(CC(=O)Nc2cccc(C(=O)N(C)C)n2)ccc1C gave CoaBC: -3.871%; Toxoplasma: -0.9512%; Leishmania in macrophages: 18.43%; MtTrpRS: 2.102%; LiHisRS: 53.95%. With O=C1COC2(COCCN(Cc3ccsc3)C2)CN1c1ccoc1 (configuration not stated) the screen gave CoaBC: -4.202%; MtTrpRS: -6.103%; LiHisRS: 12.73%.

Result for COc1ccc(Cl)cc1C(=O)NCC1CCN(C(=O)c2ccoc2)CC1 was CoaBC: -0.3745%; Toxoplasma: -0.8597%; Leishmania in macrophages: -18.9%; MtTrpRS: 0.3127%; LiHisRS: 11.57%. With O=C(O)C(F)(F)F.[H][C@@]12COC[C@]1(CNS(C)(=O)=O)CN(CCc1ccccc1)C2 the screen gave Toxoplasma: 5.571%; Leishmania in macrophages: 17.9%. CC(C)CN1CCc2[nH]nc(C(=O)N3CCCC3)c2C1.O=C(O)C(F)(F)F read Toxoplasma: 17.4%; Leishmania in macrophages: 6.474%. Result for O=C(NCc1nn(-c2ccccc2)c2c1CCC2)NCC1COCCO1 (configuration not stated) was CoaBC: 5.627%; Toxoplasma: 4.028%; Leishmania in macrophages: 4.625%; MtTrpRS: 2.288%; LiHisRS: 7.339%.

The last 2 entries again:

SMILES,CoaBC,Toxoplasma,Leishmania in macrophages,MtTrpRS,LiHisRS
CC(C)CN1CCc2[nH]nc(C(=O)N3CCCC3)c2C1.O=C(O)C(F)(F)F,-,17.4,6.474,-,-
O=C(NCc1nn(-c2ccccc2)c2c1CCC2)NCC1COCCO1 (configuration not stated),5.627,4.028,4.625,2.288,7.339